{"source": "paper PMC6117100", "molecular_target": "SIVcol Nef wt (MaMTH Bait, V5-tagged) (SIVcol (from Colobus guereza))", "assay": "two-hybrid", "note": "No constants are given. Whether binding was seen depends on the method and setting. Binding calls can cover weak binding; strength is not graded here. Tags and fused reporters may be left off the sequences shown."}
{"binder": "SERINC5 (MaMTH Prey, FLAG-tagged) (protein, UniProt Q86VE9 1-423) MSAQCCAGQLACCCGSAGCSLCCDCCPRIRQSLSTRFMYALYFILVVVLCCIMMSTTVAHKMKEHIPFFEDMCKGIKAGDTCEKLVGYSAVYRVCFGMACFFFIFCLLTLKINNSKSCRAHIHNGFWFFKLLLLGAMCSGAFFIPDQDTFLNAWRYVGAVGGFLFIGIQLLLLVEFAHKWNKNWTAGTASNKLWYASLALVTLIMYSIATGGLVLMAVFYTQKDSCMENKILLGVNGGLCLLISLVAISPWVQNRQPHSGLLQSGVISCYVTYLTFSALSSKPAEVVLDEHGKNVTICVPDFGQDLYRDENLVTILGTSLLIGCILYSCLTSTTRSSSDALQGRYAAPELEIARCCFCFSPGGEDTEEQQPGKEGPRVIYDEKKGTVYIYSYFHFVFFLASLYVMMTVTNWFNHVRSAFHLLP", "values": [{"measurement": "binding", "value": "binds"}]}
